Measurements: patent US20180215825A1
Results are given in words; binding and its absence hold for the method and conditions named. Some binding calls cover weakened binding; strength is not graded here.

Amino acid sequences for entries named in this document (tags omitted). A change or cut given only in a name is not applied to a line headed by its entry. Chains listed by the source or under a name are the forms on record and can include a tag or linker.
cynomolgus monkey PD-L1/His (cynomolgus monkey (Macaca fascicularis)) (G7PSE7, form named): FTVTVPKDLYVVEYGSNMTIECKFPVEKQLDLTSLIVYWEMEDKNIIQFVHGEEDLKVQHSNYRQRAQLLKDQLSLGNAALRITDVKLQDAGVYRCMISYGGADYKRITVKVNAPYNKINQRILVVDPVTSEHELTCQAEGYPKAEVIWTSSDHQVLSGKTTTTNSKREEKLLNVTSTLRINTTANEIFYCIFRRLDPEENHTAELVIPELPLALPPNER

Target: cynomolgus monkey PD-L1/His (cynomolgus monkey (Macaca fascicularis)) (UniProt G7PSE7)
Assay: SPR

Row | Binder | binding
1 | hu333-4A2 Fab (Fab, V domains shown) VH: EVQLVESGGGLVQPGGSLRLSCAVSGFSLTSYGVHWVRQAPGKGLEWVAVIWAGGSTNYVDSVKGRFTISKDNAKNTVYLQMNSLRAEDTAVYYCAKPYGTSAMDYWGQGTLVTVSS VL: DIQMTQSPSSLSASVGDRVTITCKASQDVGIVVAWYQQKPGKAPKLLIYWASIRHTGVPSRFSGSGSGTEFTLTISSLQPDDFATYYCQQYSNYPLYTFGQGTKVEIK | binds
2 | hu333-4B2 Fab (Fab, V domains shown) VH: EVQLVESGGGLVQPGGSLRLSCAVSGFSLTSYGVHWVRQAPGKGLEWVAVIWAGGSTNYADSVKGRFTISKDTSKNTVYLQMNSLRAEDTAVYYCAKPYGTSAMDYWGQGTLVTVSS VL: DIQMTQSPSSLSASVGDRVTITCKASQDVGIVVAWYQQKPGKAPKLLIYWASIRHTGVPSRFSGSGSGTEFTLTISSLQPDDFATYYCQQYSNYPLYTFGQGTKVEIK | binds
